## Library screen at single concentrations

Source: ChEMBL document CHEMBL3988442, “University of Dundee, Small-Polar-MMV Screening Library” (2021).

A: 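Whole-parasite assay of Trypanosoma brucei over 72 hours; the read-out is not stated. Concentration: 30 µM. The record gives no direction; compounds that gave an IC50 in retests scored well above the rest, so higher reads as stronger inhibition. Values scatter widely below zero; nearly all retest evidence comes from the higher of the two concentrations used. About 64,000 compounds were tested under these conditions; 1.5% (about 940) showed 50% or more at least once.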
B: 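Assay of Toxoplasma gondii numbers, read through their beta-galactosidase reporter with a colour substrate. Compounds at 10 µM. The record gives no direction; the compounds picked for IC50 retests had high values, so higher reads as fewer parasites. About 67,000 compounds were tested under these conditions; 0.38% (about 260) showed 50% or more at least once.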
C: 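Cell assay of Leishmania donovani living inside macrophages; the read-out is not stated. Concentration: 30 µM. Higher reads as stronger inhibition (inferred: compounds with an IC50 in retests scored well above the rest). About 69,000 compounds were tested under these conditions; 1.5% (about 1,000) showed 50% or more at least once.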

Each number is a percent effect as filed.
How 0% and 100% were set is not recorded. Most values in the screen are low, and negative values occur.
This is an unselected part of the compounds tested.
Two or more numbers in one place are separate tests of the same structure; such repeats can differ widely.

Cc1ccnc(NCCNC(=O)c2ccccc2NCC(=O)O)c1 read A: -11.9%; B: -6.276%; C: 21.03%. With COCCN1CC(C(=O)N(C)Cc2cc(-c3cccnc3)no2)CC1=O (centres undefined) the screen gave A: -26.78%; B: -17.24%; C: 18.47%. Cc1cccc(-c2noc([C@@H]3Cc4nc[nH]c4CN3)n2)c1 gave A: -10.64%; B: -7.748%; C: -4.747%. O=C(COc1cccc2c1CCC2=O)NCC(F)(F)F gave A: 0.3083%; B: 4.535%; C: 6.712%. Cc1cnn(CCNCC(O)c2ccc3c(c2)OCCO3)c1 (centres undefined) gave A: -38.9%; B: 8.14%; C: -28.04%.

COc1cccc2c1OCC(C(=O)NCCc1nnc(C)s1)C2 (centres undefined) gave A: -48.91%; B: -0.9766%; C: 7.028%. [H][C@]12CN(Cc3cccc(F)c3)C(=O)[C@@]1([H])CN(S(=O)(=O)CC)C2 gave A: -4.11%; B: 12.3%; C: 10.38%. COc1cc(OC)c(-c2nc3c([nH]2)c(C2CC2)nn3C)cc1OC read A: -7.942%; B: 9.459%; C: 40.91%. With Cc1[nH]c2ccc(CNc3cc(C(N)=O)ccn3)cc2c1C the screen gave A: 60.58%; B: -49.36%; C: -4.433%. Result for COc1cc(C)sc1C(=O)NCCNc1ccccc1 was A: -13.05%; B: 7.797%; C: -17.79%.

Result for Cc1ccccc1N1CC2(CCN(S(=O)(=O)C3CC3)C2)CC1=O (centres undefined) was A: -25.52%; B: 5.385%; C: 34.84%. Cc1nc(NC(C)C)nc2c1CN(Cc1nccn1C)CC2 gave A: -26.1%; B: 2.57%; C: 1.089%. With COC(=O)Cn1c(=O)nc2n1C(=O)N(c1ccc(Cl)cc1)C2 the screen gave A: -6.168%; B: -1.042%; C: -11.61%. CCN(CC)S(=O)(=O)N1CCCC1c1nnc2n1CCCCC2 (centres undefined) gave A: 2.589%; B: -0.3409%; C: 12.31%. For Cn1nnnc1SCCNC1CCN(c2ccc3c(c2)OCO3)CC1 the result was A: -78.83%; B: 0%; C: -14.01%.

O=C1CCC2(CCCN(C(=O)c3ccoc3)C2)CN1Cc1ccncc1 (centres undefined) gave A: -4.012%; B: -2.934%; C: 23.44%. CCN1CCN(c2ncnc3c2CCN(C(=O)C2CC2)C3)CC1 gave A: -15.33%; B: 6.066%; C: -13.24%. With CCCC(=O)N1CCC(Cc2ccccc2-c2ccccc2)(C(N)=O)C1 (centres undefined) the screen gave A: 15.79%; B: -1.893%; C: 15.11%. Cc1cnn(C2CCCN(C(=O)c3cc(Cl)c4c(c3)OCO4)C2)c1 (centres undefined) read A: 10.64%; B: 3.991%; C: 4.023%. Cn1nc(CNC(=O)C2CCCC2)cc1C1CC1 gave A: 27.85%; B: 1.663%; C: -0.8141%.

Cc1n[nH]c(C)c1-c1cnc(CC2CCCN(S(C)(=O)=O)C2)cn1 (centres undefined) read A: -15.22%; B: -14.78%; C: -9.546% and 24.2%. COc1ccc(OCc2nc(C(=O)N3CCCNC(=O)C3)co2)cc1 read B: -6.748%; C: -23.44%.

The first 2 entries again:

SMILES	A	B	C
Cc1ccnc(NCCNC(=O)c2ccccc2NCC(=O)O)c1	-11.9%	-6.276%	21.03%
COCCN1CC(C(=O)N(C)Cc2cc(-c3cccnc3)no2)CC1=O (centres undefined)	-26.78%	-17.24%	18.47%